These are literature values, as cited in patent US10596118B2, “Solid dispersions” (Shionogi Inc., priority 2015, dated 2020).

For this data set the following is noted: pH 6.8; cited from earlier work.

For the molecule `COC(=O)C1=C(C)NC(C)=C(C(=O)OC)C1c1ccccc1[N+](=O)[O-]` [nifedipine], the “maximum enhancement in solubility of solid dispersion forms” value is 4 fold.
